Experimental data published in patent publication US6989242B1, “Car receptors and related molecules and methods” (The General Hospital Coporation, priority 1992, dated 2006).
For at least one compound, name, drawing or mass did not settle the structure.

Tested on: TR/CAR chimera
Experiment: Cotransfection of TR/CAR chimera with T3RE reporter, effect of added ligands
Type: cell-based, human
Settings: JEG3 cells, charcoal-treated serum
Description: To study the function of the putative ligand binding domain of the orphan, a chimeric receptor consisting of the C-terminal D, E and F domains of CAR (i.e., approximately amino acids 76-172, 173-319, and 320-348 of the CAR sequence, respectively) fused to the N-terminal A/B and C domains of TRβ was generated (termed TR/CAR), along with a control hybrid with the A/B and C domains of TR and the D, E and F domain of the glucocorticoid receptor (TR/GR). Vectors expressing these chimeras or the intact TR were cotransfected into JEG3 cells (ATCC Accession No: HTB 36) with reporter plasmids containing T3REs (i.e., of sequence […]; SEQ ID NO: 3) or GREs (from the MMTV promoter as described in Chandler et al., Cell 33:489, 1989) upstream of a reporter gene whose expression could be assayed. Transfections were carried out in the presence of serum treated with activated charcoal to remove T3 as well as other low molecular weight hydrophobic compounds that could act as CAR ligands.

Question: With `C[C@@H]1C[C@H]2[C@@H]3CCC4=CC(=O)C=C[C@]4(C)[C@@]3(F)[C@@H](O)C[C@]2(C)[C@@]1(O)C(=O)CO` [dexamethasone] as the compound, how does the “effect of added ligand on ligand-independent activation of T3RE reporter by TR/CAR chimera” value read?
Answer: Its value is “not altered”.
